In patent publication US20160200815A1:
These are yes or no findings as the source states them, for the method shown. Some results given as binding are weak or reduced against the parent protein; the word gives no strength.

Biological target: hTIM3-Fc WT (human)
Assay: ELISA on hTIM3-Fc loop-swap constructs

- binding: binds
B1: mAb58 (antibody, V domains shown)
VH: QIQLVQSGPELKKPGETVKISCKASGYTFTTYGMSWVKQAPGKGLKLMGWINTYSGAPTYADDFKGRFAFSLETSASAAYLQINNLKNEDTATYFCARKPPHYYVNSFDYWGQGTTLTVSS
VL: DIVMTQSPATLSVTPGDRVSLSCRASQSISDYLHWYQQKSHESPRLLIKYASQSISGIPSRFSGSGSGSDFTLSINSVEPEDVGVYYCQNGHSFPYTFGGGTKLEIK
